Assay results taken from doi:10.1101/2025.11.26.690573.
No constants are given. Whether binding was seen depends on the method and setting. For some assays here: In cells and extracts the contact can be indirect. Some results given as binding are weak or reduced against the parent protein; the word gives no strength.

Sequences of proteins named here, by UniProt entry; tags and fusion partners are left off.
UniProt P61201: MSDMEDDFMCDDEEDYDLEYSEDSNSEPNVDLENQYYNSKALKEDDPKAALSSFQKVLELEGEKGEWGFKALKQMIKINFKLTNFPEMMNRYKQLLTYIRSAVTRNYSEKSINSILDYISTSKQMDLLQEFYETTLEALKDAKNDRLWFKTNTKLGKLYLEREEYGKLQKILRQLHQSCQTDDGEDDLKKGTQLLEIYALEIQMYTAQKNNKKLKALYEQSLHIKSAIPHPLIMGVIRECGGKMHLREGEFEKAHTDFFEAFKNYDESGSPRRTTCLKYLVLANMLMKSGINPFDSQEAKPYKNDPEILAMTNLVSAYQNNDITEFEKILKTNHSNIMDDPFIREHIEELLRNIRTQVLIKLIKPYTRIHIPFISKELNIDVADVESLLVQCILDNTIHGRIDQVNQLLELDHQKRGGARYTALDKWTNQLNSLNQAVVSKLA
UniProt Q93034: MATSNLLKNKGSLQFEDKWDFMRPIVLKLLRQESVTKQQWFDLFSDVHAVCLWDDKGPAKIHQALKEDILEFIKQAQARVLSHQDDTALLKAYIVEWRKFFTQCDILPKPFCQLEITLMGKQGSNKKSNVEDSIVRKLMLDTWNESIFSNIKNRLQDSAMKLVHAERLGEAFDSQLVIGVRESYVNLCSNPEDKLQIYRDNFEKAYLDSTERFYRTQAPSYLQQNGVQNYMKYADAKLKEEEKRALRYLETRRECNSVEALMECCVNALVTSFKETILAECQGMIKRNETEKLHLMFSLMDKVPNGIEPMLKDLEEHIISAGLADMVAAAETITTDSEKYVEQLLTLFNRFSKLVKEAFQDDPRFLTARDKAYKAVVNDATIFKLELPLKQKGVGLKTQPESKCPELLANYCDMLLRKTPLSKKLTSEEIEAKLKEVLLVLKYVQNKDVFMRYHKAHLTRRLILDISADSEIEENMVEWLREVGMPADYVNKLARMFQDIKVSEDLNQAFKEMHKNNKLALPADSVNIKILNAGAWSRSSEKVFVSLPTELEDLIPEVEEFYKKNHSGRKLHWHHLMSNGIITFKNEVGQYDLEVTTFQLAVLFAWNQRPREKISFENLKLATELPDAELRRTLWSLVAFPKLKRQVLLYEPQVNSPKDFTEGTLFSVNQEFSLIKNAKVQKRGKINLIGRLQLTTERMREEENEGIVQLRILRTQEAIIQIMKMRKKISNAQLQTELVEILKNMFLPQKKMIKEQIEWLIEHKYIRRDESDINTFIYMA
UniProt Q92466: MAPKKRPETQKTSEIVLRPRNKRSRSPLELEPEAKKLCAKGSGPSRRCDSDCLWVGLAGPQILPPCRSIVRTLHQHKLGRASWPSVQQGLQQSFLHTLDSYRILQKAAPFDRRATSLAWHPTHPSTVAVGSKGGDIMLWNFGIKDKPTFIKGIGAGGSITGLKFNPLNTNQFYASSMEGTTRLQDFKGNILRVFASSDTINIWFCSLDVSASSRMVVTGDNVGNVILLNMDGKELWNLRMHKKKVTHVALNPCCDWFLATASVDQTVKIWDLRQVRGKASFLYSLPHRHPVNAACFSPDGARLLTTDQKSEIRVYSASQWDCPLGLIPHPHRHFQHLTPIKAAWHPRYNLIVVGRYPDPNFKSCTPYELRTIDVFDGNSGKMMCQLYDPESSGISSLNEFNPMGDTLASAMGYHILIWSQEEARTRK

What was measured:
[1] = target: CSN5^DM, CSN5 E76A/D151N (human) (UniProt Q92905); experiment: cryo-EM structure; N8~CRLs (CRL1, CRL2, CRL3, CRL4A, CRL5) mixed with CSN^DM at a 3:1 ratio, 30 minutes on ice, about 4.5 mg/ml; both purified
HBTH-tagged CSN2 (human) = HBTH-tagged CSN2 (human) (UniProt P61201); experiment: pull-down; affinity purified HBTH-CSN2 complexes (streptavidin resin) from cells with or without CSN5i-3, immunoblotting

CUL5 (from UniProt Q93034 1-780)
binding [1]: binds

DDB2 (from UniProt Q92466 1-427)
binding (HBTH-tagged CSN2 (human)): binds
